Measured values reported in PubChem BioAssay AID328 (DTP/NCI, 2004).
The list does not hold the whole screen: it is rich in T/C values a quarter to a half above the control, in often repeated tests (any T/C) and in doses without a T/C. Further doses and runs are listed elsewhere. T/C: endpoint of the treated group in % of that of the vehicle group. Some entries give survivors of the animals treated and no T/C: the source files T/C as zero there, which appears to mark a toxic dose or a test without result, not a measured value. Some survivor counts are full or nearly so, which does not show that the dose was tolerated: the source hardly ever lists a survival T/C far under the control, and the zero likely stands for such cases as well. Survivors were counted at the toxicity check, usually on the fifth day, unless a day is given; later deaths do not show. Schedule codes are those of the source, read here as Q, the interval in days (D) or hours (H), X, the number of doses. Where survival is the endpoint, the PubChem record calls one and a half times the control and up active, and a quarter to a half above the control has no call in these data; cut-offs in other NCI protocols can differ. Some doses were run more than once; the results are listed from low to high.

Test system: BDF1 mice, P388 leukemia ip, median survival T/C
Experiment: NCI In Vivo Anticancer Drug Screen. Data for tumor model P388 Leukemia (intraperitoneal) in B6D2F1 (BDF1) mice
Settings: T/C endpoint: median survival time, higher T/C = longer survival
How it was run: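 Compound-treated tumour-bearing mice were compared with vehicle-treated controls. Survival was recorded, and the value is the treated-group measurement divided by the control-group measurement (T/C).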

[1] = dose: 100.0 mg/kg/injection, schedule: Q04DX003 (ip), vehicle: saline
[2] = dose: 200.0 mg/kg/injection, schedule: Q04DX003 (ip), vehicle: saline
[3] = dose: 12.5 mg/kg/injection, schedule: Q01DX009 (ip), vehicle: saline
[4] = dose: 50.0 mg/kg/injection, schedule: Q01DX009 (ip), vehicle: saline
[5] = dose: 100.0 mg/kg/injection, schedule: Q01DX009 (ip), vehicle: saline
[6] = dose: 100.0 mg/kg/injection, schedule: Q01DX009 (ip), vehicle: saline with Tween-80
[7] = dose: 200.0 mg/kg/injection, schedule: Q01DX009 (ip), vehicle: saline with Tween-80
[8] = dose: 400.0 mg/kg/injection, schedule: Q01DX009 (ip), vehicle: water
[9] = dose: 50.0 mg/kg/injection, schedule: Q01DX009 (ip), vehicle: saline with Tween-80
[10] = dose: 25.0 mg/kg/injection, schedule: Q01DX009 (ip), vehicle: saline with Tween-80
[11] = dose: 400.0 mg/kg/injection, schedule: Q01DX009 (ip), vehicle: saline with Tween-80
[12] = dose: 200.0 mg/kg/injection, schedule: Q04DX003 (ip), vehicle: saline with Tween-80
[13] = dose: 25.0 mg/kg/injection, schedule: Q01DX009 (ip), vehicle: saline

C1CNCOC1
T/C [1]: 132 % of control | T/C [2]: 146 % of control

CN(CCO)/N=N/c1nc[nH]c1C(N)=O
survivor count [3]: 5 of 6 | survivor count [4]: 5 of 6 | survivor count [5]: 6 of 6

CCCC(=O)c1ccco1
survivor count [6]: 4 of 6 | survivor count [7]: 0 of 6

COc1ccccc1/C=C(/C)[N+](=O)[O-]
T/C (dose: 22.0 mg/kg/injection, schedule: Q01DX010 (ip), vehicle: carboxymethylcellulose (CMC)): 145 % of control | T/C (dose: 50.0 mg/kg/injection, schedule: Q01DX010 (ip), vehicle: carboxymethylcellulose (CMC)): 135 % of control

Clc1nn2cnnc2c2ccccc12
survivor count (dose: 20.0 mg/kg/injection, schedule: Q01DX009 (ip), vehicle: saline): 4 of 7

Cc1ccc(NC(=O)N(CCCl)N=O)c(C)c1
T/C (dose: 16.5 mg/kg/injection, schedule: Q04DX003 (ip), vehicle: other): 136 % of control | T/C (dose: 25.0 mg/kg/injection, schedule: Q04DX003 (ip), vehicle: other): 145 % of control | T/C (dose: 37.5 mg/kg/injection, schedule: Q04DX003 (ip), vehicle: other): 131 % of control

CCOC(=O)c1[nH]c(C)nc1/N=N/N(C)C
T/C [4]: 131 % of control | T/C [5]: 127 and 133 % of control

COc1cc(C)c(Cl)c(C)c1C#CC(=O)O
survivor count (dose: 400.0 mg/kg/injection, schedule: Q01DX001 (ip), vehicle: Klucel (hydroxypropylcellulose) (HPC)): 1 of 6

CN(C)CCNC1=CC(=O)c2ccccc2C1=O
survivor count (dose: 200.0 mg/kg/injection, schedule: Q04DX003 (ip), vehicle: water): 3 of 6 | survivor count (dose: 300.0 mg/kg/injection, schedule: Q01DX009 (ip), vehicle: water): 1 of 6 | survivor count [8]: 0 of 6

COc1cc(C(C)(C)C)cc(OC)c1C(O)(c1c(OC)cc(C(C)(C)C)cc1OC)c1c(OC)cc(C(C)(C)C)cc1OC
T/C [9]: 140 % of control | T/C [6]: 147 % of control | survivor count [7]: 5 of 6

C/C(=N/S(=O)(=O)c1ccc(C)cc1)OCCN(C)C
survivor count (dose: 12.0 mg/kg/injection, schedule: Q04DX003 (ip), vehicle: saline with Tween-80): 3 of 6

COc1cc2c(c(OC)c1OC)-c1cc(I)c(O)cc1[C@@H](NC(C)=O)CC2
survivor count (dose: 150.0 mg/kg/injection, schedule: Q04DX003 (ip), vehicle: saline with Tween-80): 2 of 6

CCCCC(CC)CC1CCCCC1O (centres undefined)
survivor count (dose: 400.0 mg/kg/injection, schedule: Q01DX009 (ip), vehicle: Klucel (hydroxypropylcellulose) (HPC)): 2 of 6

CCC[CH2][Sn]1([CH2]CCC)[O]OC2(CCCCC2)[O]1
T/C (dose: 2.5 mg/kg/injection, schedule: Q01DX009 (ip), vehicle: Klucel (hydroxypropylcellulose) (HPC)): 144 % of control | survivor count (dose: 6.25 mg/kg/injection, schedule: Q04DX003 (ip), vehicle: saline sonified): 6 of 6 | survivor count (dose: 10.0 mg/kg/injection, schedule: Q01DX009 (ip), vehicle: Klucel (hydroxypropylcellulose) (HPC)): 0 of 6

O=c1[nH]c2ccc(Br)cc2c(=O)o1
T/C [10]: 138 % of control | T/C [9]: 144 % of control | survivor count (dose: 150.0 mg/kg/injection, schedule: Q01DX001 (ip), vehicle: Klucel (hydroxypropylcellulose) (HPC)): 6 of 6

c1ccc2c3csc4ccccc4c-3nc2c1
survivor count (dose: 25.0 mg/kg/injection, schedule: Q04DX003 (ip), vehicle: Klucel (hydroxypropylcellulose) (HPC)): 6 of 6 | survivor count (dose: 50.0 mg/kg/injection, schedule: Q04DX003 (ip), vehicle: Klucel (hydroxypropylcellulose) (HPC)): 4 of 6

O=C1C[C@H]2[C@H](CO)[C@@H](OC(=O)c3ccc(-c4ccccc4)cc3)C[C@H]2O1
survivor count (dose: 115.0 mg/kg/injection, schedule: Q01DX009 (ip), vehicle: saline with Tween-80): 0 of 6

COc1ccc(CC(=O)Cc2ccc(OC)c(OC)c2)cc1OC
T/C [11]: 134 % of control

O=[N+]([O-])c1ccc(Oc2ccc(C3N(c4ccccc4)CCN3c3ccccc3)cc2)c([N+](=O)[O-])c1
survivor count [8]: 6 of 6

Nc1ncc(-c2ccc(CNc3ccc(C(=O)NC(CC(=O)O)CC(=O)O)cc3)cc2)c(N)n1
survivor count [12]: 4 of 6 | survivor count [2]: 4 of 6

CS(=O)(=O)OCCCCOS(C)(=O)=O
survivor count (dose: 12.5 mg/kg/injection, schedule: Q01DX010 (ip), vehicle: saline): 6 of 6 | survivor count (dose: 25.0 mg/kg/injection, schedule: Q01DX010 (ip), vehicle: saline): 6 of 6 | survivor count (dose: 50.0 mg/kg/injection, schedule: Q01DX010 (ip), vehicle: saline): 6 of 6

C[Si](C)(C)Nc1ncnc2c1ncn2[Si](C)(C)C
survivor count [7]: 6 of 6 | survivor count [11]: 3 of 6

[NH-]C(CCC(N)=O)C(=O)O.[NH-]C(CCC(N)=O)C(=O)O.[Ni+2] (centres undefined)
survivor count (dose: 50.0 mg/kg/injection, schedule: Q01DX005 (ip), vehicle: saline with Tween-80): 3 of 5 | survivor count (dose: 100.0 mg/kg/injection, schedule: Q01DX005 (ip), vehicle: saline with Tween-80): 0 of 5 | survivor count (dose: 200.0 mg/kg/injection, schedule: Q01DX005 (ip), vehicle: saline with Tween-80): 0 of 5

CC(=O)OC1C=CCC23C(=O)C=CC(=O)C12C(=O)c1ccccc1C3=O (centres undefined)
survivor count [13]: 2 of 6

COc1ccc2c(c1)c1c(C)c3cnccc3c(C)c1n2CCCN
survivor count [13]: 6 of 6 | survivor count (dose: 50.0 mg/kg/injection, schedule: Q04DX003 (ip), vehicle: saline): 2 of 6 | survivor count [1]: 2 of 6

Cc1cc(=O)c2cc(N(C)C)ccc2[nH]1
survivor count (dose: 200.0 mg/kg/injection, schedule: Q01DX009 (ip), vehicle: water): 6 of 6

CC(C)OC(=S)SSc1nc2ccccc2s1
T/C (dose: 37.5 mg/kg/injection, schedule: Q01DX009 (ip), vehicle: saline): 125 % of control | survivor count (dose: 150.0 mg/kg/injection, schedule: Q01DX009 (ip), vehicle: saline with Tween-80): 6 of 6 | survivor count (dose: 300.0 mg/kg/injection, schedule: Q01DX009 (ip), vehicle: saline with Tween-80): 2 of 6

C[S+](C)CCCNC(=O)c1csc(-c2csc(CCNC(=O)c3ccccc3)n2)n1
survivor count (dose: 64.0 mg/kg/injection, schedule: Q01DX009 (ip), vehicle: saline): 4 of 10

CC[N+](CC)(CC)CCCCCCCCCC[N+](CC)(CC)CC
survivor count (dose: 0.5 mg/kg/injection, schedule: Q01DX009 (ip), vehicle: water): 6 of 6 | survivor count (dose: 2.0 mg/kg/injection, schedule: Q01DX009 (ip), vehicle: water): 0 of 6 | survivor count (dose: 4.0 mg/kg/injection, schedule: Q01DX009 (ip), vehicle: water): 0 of 6

CC(C)(Br)C(=O)c1ccc([N+](=O)[O-])o1
T/C (dose: 0.78 mg/kg/injection, schedule: Q01DX009 (ip), vehicle: saline): 132 % of control | T/C (dose: 1.56 mg/kg/injection, schedule: Q01DX009 (ip), vehicle: saline): 125 % of control | T/C [3]: 133 % of control | survivor count [10]: 6 of 6 | survivor count [9]: 6 of 6 | survivor count [6]: 6 of 6 | survivor count [7]: 3 of 6 | survivor count [12]: 2 of 6 | survivor count [11]: 1 of 6

COC(OC)C1(O)CC(C(C)C)OC(=O)N1 (centres undefined)
T/C [2]: 132 % of control

O=Cc1[nH]c(=O)[nH]c(=O)c1Br
T/C (dose: 100.0 mg/kg/injection, schedule: Q04DX003 (ip), vehicle: saline with Tween-80): 133 % of control | T/C [12]: 133 % of control

CCCCCCCC[N+](C)(C)CCSCC[N+](C)(C)CCCCCCCC
survivor count [10]: 5 of 6 | survivor count [9]: 1 of 6

O=C(CBr)c1ccc(I)cc1
survivor count (dose: 85.0 mg/kg/injection, schedule: Q01DX010 (ip), vehicle: saline): 6 of 7 | survivor count (dose: 170.0 mg/kg/injection, schedule: Q01DX010 (ip), vehicle: saline): 0 of 7
